PubChem BioAssay AID1259425, University of Nebraska Medical Center – 2018
In all, the deposit lists about 14,000 reagents; below is an unselected part. Not all columns of the deposit are shown. Reagent sequences are not shown. The record does not give: the time to read-out.

Screen: 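Find knockdowns that reproduce the gene expression pattern seen when KSR1 is lost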 (primary screen)
Cells: HCT116 human colon cancer cells
Reagents: siRNA pool against human genes, 50 nM siRNA
Read-out: 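mRNA of six signature genes measured together by branched-DNA assay after 50 nM siRNA pool, blank removed, divided by geometric mean of two housekeeping genes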
Direction: BNIP3L mRNA: higher = more BNIP3L transcript after knockdown; NDRG1 mRNA: higher = more NDRG1 transcript after knockdown

Target gene,PubChem SID,"BNIP3L mRNA, set 1","NDRG1 mRNA, set 1"
CCR10 (C-C motif chemokine receptor 10),SID364000226,0.225,0.85
GRSF1 (G-rich RNA sequence binding factor 1),SID363993299,0.121,0.428
GPBP1L1 (GC-rich promoter binding protein 1 like 1),SID364002162,0.101,0.177
NODAL (nodal growth differentiation factor),SID364000743,0.147,0.211
STAR (steroidogenic acute regulatory protein),SID363991681,0.112,0.15
TPTEP1 (TPTE pseudogene 1),SID363999683,0.245,0.429
CDC14B (cell division cycle 14B),SID363994746,0.11,0.189
IL20 (interleukin 20),SID364001206,0.107,0.211
GPX5 (glutathione peroxidase 5),SID363992767,0.0888,0.344
MTA1 (metastasis associated 1),SID363995650,0.123,0.441
BACE1 (beta-secretase 1),SID363998053,0.0363,0.393
ARHGEF1 (Rho guanine nucleotide exchange factor 1),SID363995665,0.0669,0.0953
BHLHE41 (basic helix-loop-helix family member e41),SID364003416,0.19,0.199
ELF4 (E74 like ETS transcription factor 4),SID363992685,0.133,0.121
CTSK (cathepsin K),SID363991727,0.0669,0.174
PSD (pleckstrin and Sec7 domain containing),SID363993936,0.0749,0.191
HOXB6 (homeobox B6),SID364001279,0.126,0.804
PNISR (PNN interacting serine and arginine rich protein),SID364004243,0.138,0.905
ATG101 (autophagy related 101),SID364002226,0.134,0.54
ATR (ATR checkpoint kinase),SID363992474,0.0966,0.112
SELL (selectin L),SID363991959,0.135,0.174
GPRC5C (G protein-coupled receptor class C group 5 member C),SID364001152,0.154,0.318
TBX1 (T-box transcription factor 1),SID363996847,0.176,0.379
GGCT (gamma-glutamylcyclotransferase),SID364002711,0.0944,0.223
ESR1 (estrogen receptor 1),SID363991461,0.144,0.205
ZDHHC11 (zDHHC palmitoyltransferase 11),SID364003057,0.163,0.515
NPC1L1 (NPC1 like intracellular cholesterol transporter 1),SID363998495,0.0995,0.489
ZNF143 (zinc finger protein 143),SID363994543,0.115,0.075
TNFRSF11A (TNF receptor superfamily member 11a),SID363994900,0.129,0.146
CDR1 (cerebellar degeneration related 1),SID363995075,0.0978,0.186
RACGAP1 (Rac GTPase activating protein 1),SID363998400,0.0945,0.162
SGSH (N-sulfoglucosamine sulfohydrolase),SID363991535,0.113,0.173
MRPL3 (mitochondrial ribosomal protein L3),SID363997904,0.0804,0.0812
SAR1A (secretion associated Ras related GTPase 1A),SID364001509,0.16,0.111
ABCB4 (ATP binding cassette subfamily B member 4),SID363991774,0.0429,0.0599
"HLF (HLF transcription factor, PAR bZIP family member)",SID363993332,0.143,0.278
PLPP7 (phospholipid phosphatase 7 (inactive)),SID364004141,0.0824,0.393
CLN8 (CLN8 transmembrane ER and ERGIC protein),SID364001268,0.0601,0.158
GPD1L (glycerol-3-phosphate dehydrogenase 1 like),SID363999326,0.0813,0.711
SEL1L (SEL1L adaptor subunit of SYVN1 ubiquitin ligase),SID363996002,0.121,0.0589
FCMR (Fc mu receptor),SID363996355,0.144,0.125
DPEP3 (dipeptidase 3),SID364002413,0.0768,0.581
CCRL2 (C-C motif chemokine receptor like 2),SID363995018,0.133,0.28
PEF1 (penta-EF-hand domain containing 1),SID363998278,0.159,0.446
CBX4 (chromobox 4),SID363994730,0.0577,0.228
LCN1 (lipocalin 1),SID363993495,0.0766,0.0879
GATAD1 (GATA zinc finger domain containing 1),SID364002057,0.122,0.106
RASD2 (RASD family member 2),SID363998740,0.236,0.233
FBXO31 (F-box protein 31),SID364003015,0.144,0.34
MRPS24 (mitochondrial ribosomal protein S24),SID364003735,0.12,0.144
